From PubChem BioAssay AID1487 (National Center for Advancing Translational Sciences (NCATS), 2009)
The list shows a part of the results. Further columns of the screen follow, without active or inactive calls. The list favours compounds with an active or inconclusive main result. Potencies come from curve fits of mixed quality, noted in brackets.

Assay: qHTS Assay for Modulators of Lamin A Splicing
Conditions: HeLa LMNA splicing GFP/RFP minigene ratio, 48 h
Summary of the method: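 Read-out is the ratio of GFP to DsRed2 object intensity, acquired by 488 nm laser-scanning cytometry on HeLa lamin A-EGFP minigene reporter cells. Compound incubation 48 hrs at 37 °C in Opti-MEM with 2% FBS; DMSO 0.5% final.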

[1] = measured here: GFP splicing reporter channel
[2] = measured here: RFP viability control channel

SMILES | AC50 [1] | AC50 [2]
COc1ccc(NC(=O)c2[nH]c(C)c(C(C)=O)c2C)cc1Cl | 22.4 µM [rising, single point] | 7.08 µM [rising, partial curve, poor fit]
O=[N+]([O-])c1cc(S(=O)(=O)NC2=NCCCCC2)ccc1Cl |  | 0.00447 µM [rising, full curve, poor fit]
Cc1ccc(-c2cnc(C3CC3)o2)cc1S(=O)(=O)Nc1ccc(F)cc1Cl | 35.5 µM [rising, single point] | 22.4 µM [rising, single point]
CCOC(=O)CN1N=C(/C=C/c2ccc(C)cc2)CCC1=O | 12.6 µM [falling, single point] | 10 µM [falling, partial curve]
Cc1ccc(Cn2ccc(NC(=O)c3nc4ncccn4n3)n2)cc1 |  | 0.0794 µM [falling, full curve, poor fit]
Cc1c(Cl)cccc1NC(=S)NCc1cccs1 | 31.6 µM [rising, single point] | 31.6 µM [rising, single point]
Cc1ccc(-c2c3c(=O)n(C)c(=O)n(C)c3cn2-n2cnnc2)cc1 |  | 31.6 µM [rising, single point]
O=C(NCc1ccccc1)C(c1cccs1)N(C(=O)c1csnn1)C1CC1 (stereo not drawn) |  | 35.5 µM [rising, single point]
CC(=O)Nc1ccccc1OCC(=O)NCCC1=CCCCC1 |  | 5.01 µM [rising, partial curve]
Cc1ccc(C)c(N2CCN(C(=O)CCc3c(C)nn(-c4ccc(N5CCCC5)nn4)c3C)CC2)c1 | 0.00316 µM [falling, full curve, poor fit] | 0.00282 µM [falling, full curve, poor fit]
O=c1c2ccccc2c(=O)n(Cc2ccccc2)n1Cc1ccccc1 | 11.2 µM [rising, single point] | 20 µM [rising, single point]
CC(=O)CSc1nc(N(C)C)nc(N(C)C)n1 | 0.0794 µM [falling, full curve, poor fit] | 0.0794 µM [falling, full curve]
CC(C)CNC(=S)N1CCC(NC(=O)c2ccco2)CC1 |  | 22.4 µM [falling, single point]
O=c1cc(CNc2ccc(Br)cc2)nc2sccn12 |  | 28.2 µM [rising, single point]
CCOC(=O)c1c(C=O)c(C)n(Cc2ccccc2Cl)c1C |  | 12.6 µM [rising, single point]
CCOC(=O)c1c(/N=C/N(C)C)sc(/C=N/Nc2ccccc2)c1-c1ccccc1Cl |  | 11.2 µM [rising, partial curve]

5 entries from above in another layout:
SMILES,AC50 [1],AC50 [2]
O=[N+]([O-])c1cc(S(=O)(=O)NC2=NCCCCC2)ccc1Cl,,"0.00447 µM [rising, full curve, poor fit]"
Cc1ccc(-c2cnc(C3CC3)o2)cc1S(=O)(=O)Nc1ccc(F)cc1Cl,"35.5 µM [rising, single point]","22.4 µM [rising, single point]"
CCOC(=O)CN1N=C(/C=C/c2ccc(C)cc2)CCC1=O,"12.6 µM [falling, single point]","10 µM [falling, partial curve]"
Cc1ccc(Cn2ccc(NC(=O)c3nc4ncccn4n3)n2)cc1,,"0.0794 µM [falling, full curve, poor fit]"
Cc1c(Cl)cccc1NC(=S)NCc1cccs1,"31.6 µM [rising, single point]","31.6 µM [rising, single point]"
